The exact form of at least one protein or probe is not confirmed. For part of these data: No signal at the amounts used counts as a negative. A weaker result is weaker than the reference pair of the same experiment.
What was measured:
[1] = molecular target: Hk-gaga (UniProt Q08605); test: EMSA; details: Zn2+, EMSA: 18 mM Tris-HCl pH 7.5, 90 mM KCl, 1.8 mM MgCl2, 0.2 mM TCEP, 9% glycerol, 0.11 mg/mL BSA, 2.2% NP-40, 0.02 mM ZnCl2, 20 C, 75 nM DNA
[2] = molecular target: gaga-Hk (UniProt Q08605); test: EMSA; details: Zn2+, EMSA: 18 mM Tris-HCl pH 7.5, 90 mM KCl, 1.8 mM MgCl2, 0.2 mM TCEP, 9% glycerol, 0.11 mg/mL BSA, 2.2% NP-40, 0.02 mM ZnCl2, 20 C, 75 nM DNA
[3] = molecular target: gaga-Hk-gaga (UniProt Q08605); test: EMSA; details: Zn2+, EMSA: 18 mM Tris-HCl pH 7.5, 90 mM KCl, 1.8 mM MgCl2, 0.2 mM TCEP, 9% glycerol, 0.11 mg/mL BSA, 2.2% NP-40, 0.02 mM ZnCl2, 20 C, 75 nM DNA
[4] = molecular target: Hk-gaga (UniProt Q08605); test: fluorescence anisotropy; details: 50 uM bp calf thymus DNA, Zn2+; FA: 20 mM Tris-HCl pH 7.5, 100 mM NaCl, 0.02 mM ZnCl2, 20 C, 25 nM DNA; label: 5'-TMR
[5] = molecular target: gaga-Hk (UniProt Q08605); test: fluorescence anisotropy; details: 50 uM bp calf thymus DNA, Zn2+; FA: 20 mM Tris-HCl pH 7.5, 100 mM NaCl, 0.02 mM ZnCl2, 20 C, 25 nM DNA; label: 5'-TMR

Sequences of proteins named here, by UniProt entry; tags and fusion partners are left off. A change or cut given only in a name is not applied to a line headed by its entry.
UniProt Q08605: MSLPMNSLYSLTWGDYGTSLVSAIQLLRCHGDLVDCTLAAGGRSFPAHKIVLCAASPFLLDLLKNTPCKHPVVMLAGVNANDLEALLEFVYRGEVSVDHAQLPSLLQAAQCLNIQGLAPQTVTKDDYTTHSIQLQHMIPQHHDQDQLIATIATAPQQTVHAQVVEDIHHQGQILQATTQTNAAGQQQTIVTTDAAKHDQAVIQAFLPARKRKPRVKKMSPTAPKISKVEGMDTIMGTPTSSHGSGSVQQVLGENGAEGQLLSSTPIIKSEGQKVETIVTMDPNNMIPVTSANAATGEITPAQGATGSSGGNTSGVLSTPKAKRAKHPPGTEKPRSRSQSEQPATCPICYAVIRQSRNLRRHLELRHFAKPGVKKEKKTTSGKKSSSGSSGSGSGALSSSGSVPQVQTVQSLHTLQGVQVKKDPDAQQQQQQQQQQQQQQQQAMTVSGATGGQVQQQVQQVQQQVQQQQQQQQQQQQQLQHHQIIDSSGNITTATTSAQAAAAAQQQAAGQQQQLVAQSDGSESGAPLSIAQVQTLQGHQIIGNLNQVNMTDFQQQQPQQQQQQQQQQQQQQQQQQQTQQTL

Sequence | binding result [1] | binding result [2] | binding result [3] | other results
CGCGTCATAATTCGCGACGC (double strand) [AT·cgc (= cat·AT·cgc)] | – | – | – | binding result ([1]; up to 1000 nM): no binding; binding result ([2]; up to 1000 nM): no binding; binding result ([3]; up to 1000 nM): no binding
CGCGTCATCAGCGAGAGCGC (double strand) [cg·GAG] | binds more weakly | binds more weakly | – | –
GAGCTCTCAATTGAGAGCGCG (double strand) [CTC·AT·GAG] | – | – | binds | –
CGCGTCATCAGCGAGAGCGC (double strand) [TMR-cg·GAG] | – | – | – | binding result [4]: binds more weakly; binding result [5]: binds more weakly
CGCGTCATAATTGAGAGCGC (double strand) [AT·GAG (= cat·AT·GAG)] | binds | binds | – | binding result ([3]; 1000 nM): binds more weakly
GGTTCTCTCGACCGAGAGTTGG (double strand) [CTC·gc·GAG] | – | – | binds more weakly | –
